Results as given in paper PMC12559371.
These are yes or no findings as the source states them, for the method shown. Binding seen in cells or lysates may run through a third protein. Some entries that bind do so weakly or less than the wild type.

Amino acid sequences for entries named in this document (tags omitted).
UniProt Q6A4J8: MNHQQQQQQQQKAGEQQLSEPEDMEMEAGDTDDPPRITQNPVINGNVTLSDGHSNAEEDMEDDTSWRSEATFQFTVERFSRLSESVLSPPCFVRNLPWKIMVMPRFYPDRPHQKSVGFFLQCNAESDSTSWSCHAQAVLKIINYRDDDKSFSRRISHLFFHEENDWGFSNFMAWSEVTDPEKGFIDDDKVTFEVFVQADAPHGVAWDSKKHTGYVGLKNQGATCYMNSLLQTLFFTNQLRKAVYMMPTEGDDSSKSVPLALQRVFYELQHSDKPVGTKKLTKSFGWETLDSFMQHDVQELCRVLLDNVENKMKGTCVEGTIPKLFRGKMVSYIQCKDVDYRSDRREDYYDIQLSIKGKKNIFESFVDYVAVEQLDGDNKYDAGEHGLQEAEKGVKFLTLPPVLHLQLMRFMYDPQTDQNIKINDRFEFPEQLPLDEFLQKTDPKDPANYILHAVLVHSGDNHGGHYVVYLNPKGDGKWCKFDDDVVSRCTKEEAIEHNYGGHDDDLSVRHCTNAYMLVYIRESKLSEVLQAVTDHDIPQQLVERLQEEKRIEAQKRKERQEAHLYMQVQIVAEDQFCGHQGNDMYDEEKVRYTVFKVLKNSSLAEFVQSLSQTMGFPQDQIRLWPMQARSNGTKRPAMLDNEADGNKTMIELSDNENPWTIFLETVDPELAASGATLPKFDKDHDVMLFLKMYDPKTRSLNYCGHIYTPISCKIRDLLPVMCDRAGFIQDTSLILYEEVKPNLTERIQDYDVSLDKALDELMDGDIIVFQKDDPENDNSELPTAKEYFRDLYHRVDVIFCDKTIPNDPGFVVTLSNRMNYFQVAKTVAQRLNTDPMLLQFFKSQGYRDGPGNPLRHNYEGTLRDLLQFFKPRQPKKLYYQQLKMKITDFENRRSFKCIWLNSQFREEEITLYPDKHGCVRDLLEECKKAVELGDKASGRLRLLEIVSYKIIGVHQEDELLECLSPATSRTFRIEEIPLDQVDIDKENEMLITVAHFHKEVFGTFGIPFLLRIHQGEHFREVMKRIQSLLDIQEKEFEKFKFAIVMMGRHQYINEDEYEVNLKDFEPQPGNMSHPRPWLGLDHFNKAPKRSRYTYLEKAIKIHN
UniProt P52480: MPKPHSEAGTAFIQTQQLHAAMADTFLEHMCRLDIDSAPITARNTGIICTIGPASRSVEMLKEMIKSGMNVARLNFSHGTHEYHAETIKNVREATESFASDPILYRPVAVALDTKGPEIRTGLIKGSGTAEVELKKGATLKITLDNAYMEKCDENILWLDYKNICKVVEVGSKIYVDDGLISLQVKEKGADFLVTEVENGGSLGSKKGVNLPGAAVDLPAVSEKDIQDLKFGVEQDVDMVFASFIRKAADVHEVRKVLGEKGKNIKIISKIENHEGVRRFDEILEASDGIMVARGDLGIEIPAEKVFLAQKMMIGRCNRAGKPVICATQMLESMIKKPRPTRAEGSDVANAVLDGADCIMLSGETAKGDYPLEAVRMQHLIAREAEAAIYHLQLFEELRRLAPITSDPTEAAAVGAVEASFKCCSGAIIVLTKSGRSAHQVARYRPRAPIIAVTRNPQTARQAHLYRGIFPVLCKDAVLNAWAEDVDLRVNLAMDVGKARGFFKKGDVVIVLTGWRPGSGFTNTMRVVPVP

Molecular target: Ubiquitin-specific protease 7 (mouse (endogenous in RAW 264.7)) (UniProt Q6A4J8)
Experiment: co-IP; cell lysates (100 ug protein) immunoprecipitated with 5 ug anti-USP7 or anti-PKM2 overnight at 4 °C, Protein A agarose beads, blot probed with anti-PKM2; IgG as negative control; normal and acute inflammation (LPS/IFN-γ) conditions

Pyruvate kinase M2 (from UniProt P52480 1-531) (enzyme)
binding: binds
